PubChem BioAssay AID1671195 | Yale University | 2021
Assay: 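Genes whose knockdown alters LDL uptake in liver cancer cells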 (primary screen). System: human Huh7 hepatoma cells. Knock-down reagent: siRNA pool against human genes, 18 nM. Timing: about 2 to 2.5 days of knockdown, then 8 h LDL uptake. Conditions: DiI-labelled LDL at 30 µg/ml for 8 h, in lipoprotein-deficient serum medium. Measured: 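Per-cell DiI-LDL intensity by automated imaging; well means scaled to the plate median and given as a robust z-score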. Reading the numbers: robust z-score: higher = more LDL uptake after knockdown. Hit rule: 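a gene counts as active if at least two replicate z-scores exceed ±2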.
Here is a random part of about 22,000 reagents tested. About 1,510 of all reagents (6.9%) count as active. 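Active includes knockdowns raising or lowering LDL uptake; positive z-scores mean more uptake, negative mean less.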 Unmarked entries are inactive.

gene symbol	robust z-score, replicate 1	robust z-score, replicate 2	robust z-score, replicate 3
UBD	2.7 (active)	2.5	2.41
OR5H6	-0.149	0.121	0.5
B3GAT1-DT	1.54	1.64	1.66
GRK2	1.71	1.03	-0.379
ZNF142	-0.56	-0.467	-0.649
ZNF548	0.864	0.793	0.0231
EPCIP-AS1	0.94	0.763	0.748
R3HDM4	-1.51	-1.7	-0.778
KIAA1191	6.31 (active)	5.02	7.27
SLC6A9	-0.757	-0.747	-0.159
SKP2	-1.36	-0.981	-1.49
RFFL	1.56	0.27	1.48
TMED5	0.569	1.45	1.27
FLYWCH1L (retired record)	0.54	0.577	0.236
TJAP1	0.335	0.573	0.636
ARL14EP	-0.542	-0.704	-1.2
LINC00313	1.05	1.25	1.21
PROX2	-0.268	0.0207	0.191
FSAF1	-0.738	-0.622	0.333
ARHGAP12	0.178	0.634	0.606
SUCLG2	-0.384	-0.153	-0.526
PDK3	0.984	1.59	1.08
IFI44	0.804	1.23	0.234
PGAP4	1.31	1.55	0.989
MPIG6B	-1.72	-1.86	-1.83
TIAL1	0.831	0.809	0.756
SEL1L3	0.172	-1.15	-0.756
SHOX	-0.941	-1.03	0.413
LINC01376	-0.983	-0.987	-0.874
MTO1	2.35 (active)	1.24	2.64
MAGEA13P	0.588	0.367	2.71
CCDC120	-0.301	-0.503	-0.203
ANKRD23	0.197	-0.516	-0.0239
KCNT1	1.29	0.488	0.995
GYS1	1.82	0.629	1.71
HDGFL1	1.63	1.09	1.14
RPL18	-0.995	-1.64	-0.849
IFTAP	0.12	-0.233	-0.239
ATL1	-1.43	-1.68	-1.22
RFX7	0.661	1.59	0.995
NRBP2	-1.07	-1.33	-1.06
TBCD	0.235	-0.0199	0.619
SHISAL2A	0.0699	-0.558	0.236
EPB41L2	-0.985	0.0956	-0.346
TNFSF12	-2.45 (active)	-1.06	-2.34
INAVA	-0.625	1	-1.08
EIF4EBP2	0.986	2.75	0.818
FBXL12	-0.327	-0.0943	-0.658
NUDT22	0.665	0.657	1.39
LOC440010 (retired record)	1.34	1.29	1.11
OR1A1	-1.06	-0.4	-1.57
KIR3DL2	0.134	0.328	0.767
ADAM7	-0.0853	-0.814	-0.567
CAPRIN2	0.54	1.08	0.431
FBXO32	-0.383	-0.953	-0.984
PPP2R2B	-1.33	-1.72	-1.3
CDH6	-1.41	-1.28	-1.38
GCSAML	0.0381	-0.0247	0.695
LOC441241	1.26	1.68	0.931
TAF11L1	-0.724	-0.787	-1.05
LOC400749 (retired record)	1.52	0.958	2.12
LOC400541	0.00489	0.105	1.23
DEFB113	-0.925	-0.749	-0.758
PPIAP55	-0.573	-0.256	-0.252
LPAR3	1.76 (active)	3.74	2.67
KDM4E	-0.615	-0.523	-0.806
MAT2B	1.32	1.59	0.978
TC2N	-0.123	-0.485	-0.29

Not a retest: entries from further up.
gene symbol	robust z-score, replicate 1	robust z-score, replicate 2	robust z-score, replicate 3
LOC440010 (retired record)	1.34	1.29	1.11
OR1A1	-1.06	-0.4	-1.57
KIR3DL2	0.134	0.328	0.767
ADAM7	-0.0853	-0.814	-0.567
CAPRIN2	0.54	1.08	0.431
FBXO32	-0.383	-0.953	-0.984
PPP2R2B	-1.33	-1.72	-1.3
CDH6	-1.41	-1.28	-1.38
GCSAML	0.0381	-0.0247	0.695
LOC441241	1.26	1.68	0.931
